42 sequences from article PMC7819943, “Rice protein-binding microarrays: a tool to detect cis-acting elements near promoter regions in rice” can be followed below.

By UniProt entry, the sequences of proteins in these tests, tags left out.
UniProt Q0JBA9, entry or part of it: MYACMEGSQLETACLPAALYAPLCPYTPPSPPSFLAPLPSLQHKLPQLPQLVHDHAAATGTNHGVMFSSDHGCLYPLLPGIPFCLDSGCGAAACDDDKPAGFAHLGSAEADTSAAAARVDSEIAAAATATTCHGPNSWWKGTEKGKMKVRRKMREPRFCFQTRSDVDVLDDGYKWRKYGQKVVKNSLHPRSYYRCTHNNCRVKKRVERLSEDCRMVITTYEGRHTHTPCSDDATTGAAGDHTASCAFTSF

The other results are listed elsewhere or left out.

The target of this assay is OsWRKY34 (Oryza sativa, UniProt Q0JBA9 1-250). Briefly: protein-binding microarray (RPBM); PBS, 2% BSA, 51.3 ng/ul salmon testes DNA, 50 uM zinc acetate, 200 nM TF, 25 C, 1 h; high values mean tight binding. As to conditions: protein: recombinant; tags: N-terminal polyhistidine and DsRed monomer fusion (pET32a); label: CyDye5-dUTP incorporated in the synthesized complementary strand; 3' TTTTT single-stranded linker to array surface; dsDNA, one strand shown. A digest of the protocol: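 Binding signal here means per-feature fluorescence intensity in arbitrary units. The values were read on an Axon 4000B scanner after a custom Agilent array, double-stranded by primer extension with Cy5-dUTP, was incubated with 200 nM protein at 25 °C for 1 h in PBS with 2% BSA, salmon testes DNA and 50 µM zinc acetate, then washed. The proteins were transcription factors with an N-terminal polyhistidine tag and DsRed, expressed in E. coli BL21-CodonPlus and purified on Ni–NTA.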
Turning to “ATCGACCATGGCTACTCTACGTACGATTACCTTGATCACCCGGAGTCACCTAGTGCAG”, the binding signal is 9670 fluorescence intensity (a.u.). The value for “CGTTCTCTCTCTCCTAGAACCACAGTTCAACCACTGTTTCCGGAGTCACCTAGTGCAG” was 8580 fluorescence intensity (a.u.); that for “CTGTTCTGGTCATTCTGGGCATACATTTGGCTGTATATTACGGAGTCACCTAGTGCAG” was 8070 fluorescence intensity (a.u.).

Turning to “ATCTTGATAATATTTTTGGGTGGCATTGTCTCGATTTCGACGGAGTCACCTAGTGCAG”, the binding signal is 9090 fluorescence intensity (a.u.). On to “CAAACCAACTGATGTAGCTGCTTGTGACCTCTCTCGCATCCGGAGTCACCTAGTGCAG”, for which the binding signal was 9290 fluorescence intensity (a.u.). “ACTCAATTTACAGACTTTGATTTGCTTGCTGAATTCCTCTCGGAGTCACCTAGTGCAG”: the binding signal was 8200 fluorescence intensity (a.u.).

On to “TTCCTCCATCCAGAAGTACTGGTTCCTGCTGTATTTTTCTCGGAGTCACCTAGTGCAG”, for which the binding signal was 8140 fluorescence intensity (a.u.). The figure for “CATTGCAGGTTCGACTTATGCTTTCACCTTTACTTAATCTCGGAGTCACCTAGTGCAG” is 9640 fluorescence intensity (a.u.). Take “CTCATTAGCTGTTTCTTTCTTATAATTTTAAGCTACACAGCGGAGTCACCTAGTGCAG”: the binding signal is 9500 fluorescence intensity (a.u.).

With “ACAAACTCCAAACCCATTACTCTCCTCACGACATTCTCGCCGGAGTCACCTAGTGCAG”, the binding signal was 8670 fluorescence intensity (a.u.). Consider “GTGGGTCCTACTATTTTTTATTTTCTTGTTTGATTGACATCGGAGTCACCTAGTGCAG”, for which the binding signal was 8040 fluorescence intensity (a.u.). Regarding “GTTATGAGCACATTTGTCTTGCTTTGGCTGACCTTCCATTCGGAGTCACCTAGTGCAG”, the binding signal was 8510 fluorescence intensity (a.u.).

Consider “CATCCGATCGCTAAATCCAACGGCTCATATCGTCTTTCCCCGGAGTCACCTAGTGCAG”, for which the binding signal was 8630 fluorescence intensity (a.u.). In the case of “CCTTGGCCACCCAGTTTACACTATATTTTATGTCGACGACCGGAGTCACCTAGTGCAG”, the binding signal is 10000 fluorescence intensity (a.u.). The figure for “GCCCACACTCCAACCTCCCAATTCCTCCATGAACGTAGCCCGGAGTCACCTAGTGCAG” is 8500 fluorescence intensity (a.u.); for “CCACTTCTATTTTTAACCTGGCTGCCACATCAGCACATTTCGGAGTCACCTAGTGCAG” it is 8960 fluorescence intensity (a.u.); for “TTTAGCACATGTTTAACCGTTCGTCTTATTCAAAAAATTTCGGAGTCACCTAGTGCAG” it is 11100 fluorescence intensity (a.u.).

Turning to “CATCAGTTGGCGATTCCCGCTGTATCCTAGAATCTGCTGACGGAGTCACCTAGTGCAG”, the binding signal is 65000 fluorescence intensity (a.u.). The value for “CTCCCTTGTTGCCGTTGATGTGTCCCGCACCGATGTCTCACGGAGTCACCTAGTGCAG” was 9510 fluorescence intensity (a.u.).

Consider “CTACTCGGTCTCTCTCTCTCTCTCTCTCGCCGCCGACTCGCGGAGTCACCTAGTGCAG”, for which the binding signal was 8420 fluorescence intensity (a.u.).

Regarding “CCAATCTCCACCGCCCGCTTATTTCCTTATCTCTTCCGCACGGAGTCACCTAGTGCAG”, the binding signal was 8330 fluorescence intensity (a.u.). For the sequence “CTCTTATATTTTGGGACGAGTATCTCCTATCATTCAATTCCGGAGTCACCTAGTGCAG”, the binding signal is 9960 fluorescence intensity (a.u.).

For the sequence “ATCTTCCGTCGTCTCTTTTACCACAATCTCGTCCATACCTCGGAGTCACCTAGTGCAG”, the binding signal was 8570 fluorescence intensity (a.u.). As to “CTTCTAGTTATTCTCTGTCTTGGTCAATTCTAGCTTGGCCCGGAGTCACCTAGTGCAG”, the binding signal was 8360 fluorescence intensity (a.u.). With “CACCGCCATCAATGACTCTGGCCTCTCCAACTCACTAACACGGAGTCACCTAGTGCAG”, the binding signal is 8830 fluorescence intensity (a.u.). The value for “GCATTGTTCTATTTTCTCAAAAACAAGGGTGGGCACGCAACGGAGTCACCTAGTGCAG” was 9830 fluorescence intensity (a.u.). In the case of “TGCATCATTTTTTTACTTTTCTTTTTGACTACAAGTATTCCGGAGTCACCTAGTGCAG”, the binding signal was 8480 fluorescence intensity (a.u.). The figure for “CGGTGGTGGTGGTGGTGCCTTGGCTAGTTTGGCCGGCGCGCGGAGTCACCTAGTGCAG” is 14300 fluorescence intensity (a.u.); for “GAATGGGGATTTCTTTTATATAGATCTGTGCATGTCTGTTCGGAGTCACCTAGTGCAG” it is 8520 fluorescence intensity (a.u.); for “CATGGTTCTCATTTACTGCTCCATTATTCGTTGTATGCATCGGAGTCACCTAGTGCAG” it is 14300 fluorescence intensity (a.u.).

As to “TAGCTTTGGTACGATCTGCAAGTTGCAACTTCTTCATTGTCGGAGTCACCTAGTGCAG”, the binding signal is 10900 fluorescence intensity (a.u.). The figure for “TCCACCAACCAACCGCCGCCCCACCTCGCCGCCCGCCGCCCGGAGTCACCTAGTGCAG” is 8890 fluorescence intensity (a.u.); for “AGCTATGCATTTCTTTTTTTTCGTTGTCTTCATGTTTTTTCGGAGTCACCTAGTGCAG” it is 11200 fluorescence intensity (a.u.). The figure for “CTCCTCCGCTACTACCAGTCTACCACCACCACCACCTAGACGGAGTCACCTAGTGCAG” is 9390 fluorescence intensity (a.u.); for “CGTGATATCACCCTCATTAACTTTTCTTTGGCCCTTTTTCCGGAGTCACCTAGTGCAG” it is 13100 fluorescence intensity (a.u.); for “TTGTATTGTATCCTATCCTGCATGCAGAGAGAGATGGTCGCGGAGTCACCTAGTGCAG” it is 8290 fluorescence intensity (a.u.). The value for “GTGGTGGTTGAAGTTTTCTATGGCTTTTCTTGACGTCTCGCGGAGTCACCTAGTGCAG” was 9150 fluorescence intensity (a.u.). With “GTTGGCGGCGCCTTGCCGGCTTTTGCTGGACTTCTGAAAGCGGAGTCACCTAGTGCAG”, the binding signal is 8040 fluorescence intensity (a.u.). Regarding “ATATTCAAACTTCAGTATGTTTACAGTGTTCTCGTTACATCGGAGTCACCTAGTGCAG”, the binding signal is 8200 fluorescence intensity (a.u.). The value for “CCACTGCAACGACCTCCTGCATTCCTTGGCGGCGCCGACCCGGAGTCACCTAGTGCAG” was 9030 fluorescence intensity (a.u.). The value for “TGCACCTTGTTTATCCGCCTACCGTCCTACACTTTTTATACGGAGTCACCTAGTGCAG” was 10700 fluorescence intensity (a.u.); that for “CCTATGGAATGCCTCTTCCTATGTAAATTTTGGAGGAAATCGGAGTCACCTAGTGCAG” was 13100 fluorescence intensity (a.u.).
